Results from the supplement of paper PMC10849652.
This is one part of the list.

Chains of the proteins cited; added tags and fusions are not shown. Lines headed by an entry give the natural chain unless they say otherwise; changes in a name come on top.
UniProt Q86XS8: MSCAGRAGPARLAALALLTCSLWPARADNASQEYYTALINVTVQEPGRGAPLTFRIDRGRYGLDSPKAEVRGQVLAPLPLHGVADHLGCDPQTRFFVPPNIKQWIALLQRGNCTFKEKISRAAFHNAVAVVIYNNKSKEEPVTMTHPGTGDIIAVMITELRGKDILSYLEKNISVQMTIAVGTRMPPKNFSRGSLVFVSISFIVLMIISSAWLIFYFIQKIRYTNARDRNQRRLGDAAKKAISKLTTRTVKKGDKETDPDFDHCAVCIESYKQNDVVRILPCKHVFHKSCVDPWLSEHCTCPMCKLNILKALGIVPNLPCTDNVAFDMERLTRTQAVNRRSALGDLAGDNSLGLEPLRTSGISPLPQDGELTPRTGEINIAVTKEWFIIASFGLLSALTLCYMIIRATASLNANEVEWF
UniProt Q9ULI2: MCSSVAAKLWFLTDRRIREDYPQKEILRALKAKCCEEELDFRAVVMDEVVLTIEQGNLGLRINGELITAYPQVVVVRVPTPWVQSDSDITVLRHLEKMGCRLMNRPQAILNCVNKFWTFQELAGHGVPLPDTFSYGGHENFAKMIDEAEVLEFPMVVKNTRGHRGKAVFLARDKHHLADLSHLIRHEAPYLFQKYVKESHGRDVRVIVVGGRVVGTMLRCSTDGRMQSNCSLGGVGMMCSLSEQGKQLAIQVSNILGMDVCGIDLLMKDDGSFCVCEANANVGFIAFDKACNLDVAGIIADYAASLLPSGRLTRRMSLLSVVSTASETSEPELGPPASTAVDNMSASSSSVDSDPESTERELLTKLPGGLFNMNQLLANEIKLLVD
UniProt Q6NTF9: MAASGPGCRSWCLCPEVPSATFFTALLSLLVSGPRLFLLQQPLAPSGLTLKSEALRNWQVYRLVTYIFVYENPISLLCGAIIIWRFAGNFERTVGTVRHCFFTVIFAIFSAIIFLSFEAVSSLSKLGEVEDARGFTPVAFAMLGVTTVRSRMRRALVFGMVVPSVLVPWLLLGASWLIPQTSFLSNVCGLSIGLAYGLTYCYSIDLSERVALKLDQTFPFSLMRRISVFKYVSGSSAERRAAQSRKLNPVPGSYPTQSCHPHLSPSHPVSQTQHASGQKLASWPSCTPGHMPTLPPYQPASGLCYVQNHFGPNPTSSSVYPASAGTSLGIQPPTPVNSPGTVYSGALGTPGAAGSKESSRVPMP
UniProt Q96E14: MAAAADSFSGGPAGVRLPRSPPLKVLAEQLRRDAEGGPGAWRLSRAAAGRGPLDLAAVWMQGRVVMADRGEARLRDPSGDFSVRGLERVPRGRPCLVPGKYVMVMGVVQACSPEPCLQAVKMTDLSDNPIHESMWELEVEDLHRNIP
UniProt Q5VTB9: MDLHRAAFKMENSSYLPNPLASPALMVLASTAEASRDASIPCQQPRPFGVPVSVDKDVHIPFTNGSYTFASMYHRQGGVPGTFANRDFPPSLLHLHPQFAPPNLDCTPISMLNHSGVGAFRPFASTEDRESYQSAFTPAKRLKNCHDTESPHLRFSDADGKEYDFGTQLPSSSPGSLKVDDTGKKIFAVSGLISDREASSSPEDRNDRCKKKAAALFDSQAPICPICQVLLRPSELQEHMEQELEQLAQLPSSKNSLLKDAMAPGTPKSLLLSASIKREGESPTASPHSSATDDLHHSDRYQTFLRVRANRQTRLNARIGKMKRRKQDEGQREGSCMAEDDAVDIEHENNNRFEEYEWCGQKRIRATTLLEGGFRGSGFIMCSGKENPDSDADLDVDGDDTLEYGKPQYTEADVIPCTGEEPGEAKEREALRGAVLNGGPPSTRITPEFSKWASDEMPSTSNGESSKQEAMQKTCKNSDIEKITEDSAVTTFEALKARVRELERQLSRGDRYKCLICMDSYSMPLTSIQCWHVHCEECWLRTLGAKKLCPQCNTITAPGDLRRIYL
UniProt Q8WVD5: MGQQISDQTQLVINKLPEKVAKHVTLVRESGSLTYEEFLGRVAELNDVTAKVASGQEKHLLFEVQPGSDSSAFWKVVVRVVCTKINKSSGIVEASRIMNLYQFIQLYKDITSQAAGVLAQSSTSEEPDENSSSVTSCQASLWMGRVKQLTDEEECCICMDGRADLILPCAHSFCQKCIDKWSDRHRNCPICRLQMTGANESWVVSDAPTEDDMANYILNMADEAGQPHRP
UniProt Q5UIP0: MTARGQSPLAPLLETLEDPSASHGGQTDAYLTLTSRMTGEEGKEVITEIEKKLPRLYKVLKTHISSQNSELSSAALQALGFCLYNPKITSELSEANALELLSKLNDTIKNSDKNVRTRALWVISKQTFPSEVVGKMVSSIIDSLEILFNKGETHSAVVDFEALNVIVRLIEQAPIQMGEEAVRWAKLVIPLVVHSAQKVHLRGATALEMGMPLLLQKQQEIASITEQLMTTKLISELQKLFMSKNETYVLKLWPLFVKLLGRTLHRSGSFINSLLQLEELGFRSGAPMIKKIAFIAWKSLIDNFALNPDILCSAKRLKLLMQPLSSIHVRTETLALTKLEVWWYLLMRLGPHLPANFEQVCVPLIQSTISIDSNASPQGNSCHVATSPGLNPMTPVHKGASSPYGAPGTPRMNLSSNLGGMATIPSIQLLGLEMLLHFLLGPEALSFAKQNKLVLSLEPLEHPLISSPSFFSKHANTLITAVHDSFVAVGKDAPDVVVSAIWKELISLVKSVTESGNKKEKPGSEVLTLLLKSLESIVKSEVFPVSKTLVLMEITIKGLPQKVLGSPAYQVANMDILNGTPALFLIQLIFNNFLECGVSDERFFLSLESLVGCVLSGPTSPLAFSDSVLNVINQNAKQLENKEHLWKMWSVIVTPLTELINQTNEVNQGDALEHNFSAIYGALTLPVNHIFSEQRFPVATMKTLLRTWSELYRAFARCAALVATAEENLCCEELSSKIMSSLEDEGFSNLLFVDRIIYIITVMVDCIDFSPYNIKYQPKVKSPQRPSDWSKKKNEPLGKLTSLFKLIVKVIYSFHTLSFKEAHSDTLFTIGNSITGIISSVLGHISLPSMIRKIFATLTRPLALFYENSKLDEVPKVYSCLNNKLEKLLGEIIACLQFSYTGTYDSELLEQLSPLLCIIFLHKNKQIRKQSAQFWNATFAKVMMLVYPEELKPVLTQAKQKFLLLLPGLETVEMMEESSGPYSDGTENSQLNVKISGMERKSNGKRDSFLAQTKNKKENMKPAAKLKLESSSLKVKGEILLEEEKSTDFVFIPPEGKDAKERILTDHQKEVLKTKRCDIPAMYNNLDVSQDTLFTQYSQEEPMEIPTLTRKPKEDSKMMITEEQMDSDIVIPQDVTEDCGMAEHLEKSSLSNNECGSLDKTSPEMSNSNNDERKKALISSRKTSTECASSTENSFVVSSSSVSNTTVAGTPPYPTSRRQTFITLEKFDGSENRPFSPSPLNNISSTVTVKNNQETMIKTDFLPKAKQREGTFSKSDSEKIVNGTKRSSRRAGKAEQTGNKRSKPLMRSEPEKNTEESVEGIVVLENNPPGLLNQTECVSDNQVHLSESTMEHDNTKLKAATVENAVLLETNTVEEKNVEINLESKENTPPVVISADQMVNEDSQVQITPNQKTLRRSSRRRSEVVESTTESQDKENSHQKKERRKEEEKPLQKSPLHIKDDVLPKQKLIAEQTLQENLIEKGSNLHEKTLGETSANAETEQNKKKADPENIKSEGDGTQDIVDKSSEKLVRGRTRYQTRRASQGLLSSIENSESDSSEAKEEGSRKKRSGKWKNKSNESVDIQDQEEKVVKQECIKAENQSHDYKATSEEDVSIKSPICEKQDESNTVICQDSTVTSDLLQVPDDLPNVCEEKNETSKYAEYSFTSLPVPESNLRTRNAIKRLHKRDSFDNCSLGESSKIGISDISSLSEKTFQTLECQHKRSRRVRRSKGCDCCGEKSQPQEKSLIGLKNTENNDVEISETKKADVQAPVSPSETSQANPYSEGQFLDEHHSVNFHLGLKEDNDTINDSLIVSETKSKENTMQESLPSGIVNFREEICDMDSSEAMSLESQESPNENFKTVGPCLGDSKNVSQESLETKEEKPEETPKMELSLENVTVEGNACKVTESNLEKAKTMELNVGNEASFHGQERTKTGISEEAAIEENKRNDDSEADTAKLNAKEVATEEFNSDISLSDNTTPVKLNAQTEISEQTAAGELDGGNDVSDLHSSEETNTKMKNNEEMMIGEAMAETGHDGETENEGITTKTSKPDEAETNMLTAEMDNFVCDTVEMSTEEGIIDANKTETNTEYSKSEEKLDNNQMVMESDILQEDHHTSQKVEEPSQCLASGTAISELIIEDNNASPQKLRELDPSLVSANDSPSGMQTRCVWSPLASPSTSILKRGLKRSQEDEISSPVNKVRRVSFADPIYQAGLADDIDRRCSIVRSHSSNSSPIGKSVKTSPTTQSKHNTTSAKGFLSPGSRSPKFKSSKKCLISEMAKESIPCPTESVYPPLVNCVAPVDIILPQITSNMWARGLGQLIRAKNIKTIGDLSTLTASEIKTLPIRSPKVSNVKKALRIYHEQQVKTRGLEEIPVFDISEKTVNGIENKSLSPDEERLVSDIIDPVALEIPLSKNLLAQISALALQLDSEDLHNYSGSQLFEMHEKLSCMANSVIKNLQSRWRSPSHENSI
UniProt Q9Y225: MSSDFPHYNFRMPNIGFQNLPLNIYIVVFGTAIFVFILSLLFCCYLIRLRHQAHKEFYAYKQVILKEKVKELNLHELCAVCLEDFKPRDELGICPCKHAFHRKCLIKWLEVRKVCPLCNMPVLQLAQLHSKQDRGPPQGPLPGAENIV
UniProt O43566: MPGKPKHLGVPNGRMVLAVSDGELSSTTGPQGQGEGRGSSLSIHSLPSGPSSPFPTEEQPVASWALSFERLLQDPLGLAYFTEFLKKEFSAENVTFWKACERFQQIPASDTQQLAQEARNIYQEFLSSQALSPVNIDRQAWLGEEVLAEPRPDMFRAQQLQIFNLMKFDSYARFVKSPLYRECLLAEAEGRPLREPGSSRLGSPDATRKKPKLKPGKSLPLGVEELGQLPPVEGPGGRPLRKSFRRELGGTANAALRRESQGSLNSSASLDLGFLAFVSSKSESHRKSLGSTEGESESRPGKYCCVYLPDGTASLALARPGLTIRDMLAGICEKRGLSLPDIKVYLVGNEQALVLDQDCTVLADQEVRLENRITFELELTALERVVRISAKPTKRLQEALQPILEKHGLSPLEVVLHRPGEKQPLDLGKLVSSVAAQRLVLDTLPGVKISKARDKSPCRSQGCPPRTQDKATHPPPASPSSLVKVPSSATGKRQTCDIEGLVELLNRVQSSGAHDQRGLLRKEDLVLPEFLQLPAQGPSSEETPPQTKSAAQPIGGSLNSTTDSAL
UniProt Q9Y580: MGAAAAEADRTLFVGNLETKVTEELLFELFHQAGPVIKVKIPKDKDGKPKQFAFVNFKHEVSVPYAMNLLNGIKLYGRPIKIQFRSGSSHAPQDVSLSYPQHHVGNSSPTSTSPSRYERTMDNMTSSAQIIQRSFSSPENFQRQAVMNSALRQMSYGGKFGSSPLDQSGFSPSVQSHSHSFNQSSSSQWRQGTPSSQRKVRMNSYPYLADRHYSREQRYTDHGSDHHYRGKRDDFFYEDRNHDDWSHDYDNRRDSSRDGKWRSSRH
UniProt Q5EBL4: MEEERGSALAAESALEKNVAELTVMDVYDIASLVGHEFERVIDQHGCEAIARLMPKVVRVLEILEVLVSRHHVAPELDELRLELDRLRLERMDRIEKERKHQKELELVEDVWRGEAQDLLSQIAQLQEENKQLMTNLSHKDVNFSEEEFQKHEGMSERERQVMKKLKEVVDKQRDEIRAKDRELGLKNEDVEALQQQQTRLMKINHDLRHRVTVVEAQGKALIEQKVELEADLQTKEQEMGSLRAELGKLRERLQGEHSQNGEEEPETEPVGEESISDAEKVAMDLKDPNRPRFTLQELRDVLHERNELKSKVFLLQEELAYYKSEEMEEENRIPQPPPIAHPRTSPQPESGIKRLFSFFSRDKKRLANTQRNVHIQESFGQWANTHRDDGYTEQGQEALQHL
UniProt Q8NDN9: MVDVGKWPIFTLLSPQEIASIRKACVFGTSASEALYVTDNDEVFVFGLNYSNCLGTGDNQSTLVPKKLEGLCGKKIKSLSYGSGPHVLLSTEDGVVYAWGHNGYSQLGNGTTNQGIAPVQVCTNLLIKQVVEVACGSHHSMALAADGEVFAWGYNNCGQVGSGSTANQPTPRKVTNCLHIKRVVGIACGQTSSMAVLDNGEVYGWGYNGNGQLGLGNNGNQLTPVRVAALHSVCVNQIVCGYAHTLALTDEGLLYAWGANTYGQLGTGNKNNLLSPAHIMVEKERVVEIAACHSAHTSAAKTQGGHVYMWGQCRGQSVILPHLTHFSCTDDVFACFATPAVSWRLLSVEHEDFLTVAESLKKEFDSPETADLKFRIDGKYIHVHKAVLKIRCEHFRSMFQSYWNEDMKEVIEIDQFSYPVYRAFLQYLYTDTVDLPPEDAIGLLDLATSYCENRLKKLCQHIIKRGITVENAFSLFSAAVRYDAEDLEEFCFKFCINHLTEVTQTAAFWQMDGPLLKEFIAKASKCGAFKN

What was measured:
Assay in all cases: log2 fold change, soluble protein after heating vs DMSO (PISA); higher = thermal stabilisation; K562 cells, 10 uM, 30 min; active = over 0.2 and 3.5 SD of the protein, either way, in both replicates (recomputed)
[1] = compound: NC1(c2ccc(-c3nc4ccn5c(=O)[nH]nc5c4cc3-c3ccccc3)cc2)CCC1
Procedure, shortened: (§1)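 K562 cells at 2×10^6 cells/mL were given 10 μM compound for 30 min. Aliquots then went through 3 min of heating across 48°C-58°C, were pooled, and were extracted in PBS with 0.5% NP-40 at 4°C, and the supernatant after 21,000xg for 90 min was quantified by TMTpro 16plex LC-MS/MS with channel sums equalised. Thermal stability relative to control samples, from duplicates, is given as log2 fold change.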

vorinostat = compound: O=C(CCCCCCC(=O)Nc1ccccc1)NO [vorinostat]
Procedure, shortened: as §1

citarinostat = compound: O=C(CCCCCCNC(=O)c1cnc(N(c2ccccc2)c2ccccc2Cl)nc1)NO [citarinostat]
Procedure, shortened: as §1

silmitasertib = compound: O=C(O)c1ccc2c(c1)nc(Nc1cccc(Cl)c1)c1ccncc12 [silmitasertib]
Procedure, shortened: as §1

[2] = compound: c1cc(OCCN2CCCCC2)cc(-c2n[nH]c3ccc(-c4nnc[nH]4)cc23)c1
Procedure, shortened: as §1

[3] = compound: NC(=O)Nc1cc(-c2cccc(F)c2)sc1C(=O)N[C@H]1CCCNC1
Procedure, shortened: as §1

[4] = compound: NCC(=O)Nc1ccc(-n2nc(C(F)(F)F)cc2-c2ccc3c(ccc4ccccc43)c2)cc1
Procedure, shortened: as §1

entinostat = compound: Nc1ccccc1NC(=O)c1ccc(CNC(=O)OCc2cccnc2)cc1 [entinostat]
Procedure, shortened: as §1

[5] = compound: O=C1NC(=O)C(c2cnc3ccccn23)=C1c1cn2c3c(cc(F)cc13)CN(C(=O)N1CCCCC1)CC2
Procedure, shortened: as §1

[6] = compound: NC(=O)c1cnc(N[C@@H]2CCCC[C@@H]2N)nc1Nc1cccc(-n2nccn2)c1
Procedure, shortened: as §1

Measured: log2 fold change

RBMY1E (UniProt A6NEQ0)
inactive: [1] -0.246 | vorinostat 0.07 | citarinostat 0.063 | silmitasertib -0.156 | [2] -0.081

RNF130 (UniProt Q86XS8)
inactive: [1] -0.076 | citarinostat 0.037 | silmitasertib -0.153 | [2] 0.288

RNF139 (UniProt Q8WU17)
inactive: [3] 0.097 | [1] -0.078 | [4] -0.025 | entinostat -0.023 | vorinostat 0.012 | citarinostat -0.006 | silmitasertib 0.098 | [5] -0.017 | [2] -0.041

RIMKLB (UniProt Q9ULI2)
inactive: [3] -0.172 | [1] -0.069 | entinostat 0.425 | citarinostat -0.081 | silmitasertib 0.166 | [5] -0.087 | [2] -0.01

RHBDD2 isoform 2 (UniProt Q6NTF9)
inactive: [6] -0.082 | [1] -0.153 | vorinostat 0.055 | citarinostat 0.036 | silmitasertib -0.011 | [5] 0.135 | [2] -0.01

RMI2 (UniProt Q96E14)
inactive: [6] -0.065 | [1] 0.192 | [4] 0.151 | silmitasertib -0.041

RNF185 (UniProt Q96GF1)
inactive: [6] -0.022 | [1] -0.072 | [4] -0.139 | vorinostat -0.28 | citarinostat -0.135 | silmitasertib 0.001 | [2] 0.072

RHD (UniProt Q02161)
inactive: [6] 0.039

RNASEL (UniProt Q05823)
inactive: [1] 0.068 | vorinostat -0.403 | silmitasertib 0.087

RGCC (UniProt Q9H4X1)
inactive: [6] 0.045 | vorinostat -0.146

RINT1 (UniProt Q6NUQ1)
inactive: [6] -0.074 | [1] -0.482 | [4] -0.038 | vorinostat -0.076 | citarinostat -0.095 | silmitasertib 0.293 | [5] 0.203 | [2] -0.148

RNF220 isoform 3 (UniProt Q5VTB9)
inactive: [6] 0.115

RFX7 (UniProt Q2KHR2)
inactive: [3] -0.081 | entinostat 0.033

RECQL5 (UniProt O94762)
inactive: [4] 0.048 | vorinostat 0.059

RNF141 (UniProt Q8WVD5)
inactive: [3] -0.152 | [4] -0.035 | entinostat -0.026 | vorinostat -0.084

RIT1 isoform 3 (UniProt Q92963)
inactive: vorinostat 0.138 | [5] -0.016

RIF1 (UniProt Q5UIP0)
inactive: [3] 0.286 | [4] 0.137 | entinostat 0.065 | vorinostat 0.144 | citarinostat -0.037 | [5] -0.295 | [2] 0.032

RFXANK (UniProt O14593)
inactive: vorinostat 0.04 | [5] 0.102

RNF170 (UniProt Q96K19)
inactive: [6] -0.038 | [1] -0.045 | [4] -0.168 | vorinostat 0.06 | citarinostat 0.051 | silmitasertib -0.007 | [5] 0.03 | [2] -0.09

RNF24 isoform 2 (UniProt Q9Y225)
inactive: [4] 0.177 | vorinostat -0.18 | citarinostat -0.069 | [5] -0.107 | [2] -0.061

RNF169 (UniProt Q8NCN4)
inactive: vorinostat 0.187

RGS14 (UniProt O43566)
inactive: [6] -0.184 | [1] 0.03 | [4] -0.307 | vorinostat -0.139 | citarinostat -0.3 | silmitasertib -0.052 | [5] -0.369 | [2] -0.094

RIC8B isoform 1 (UniProt Q9NVN3)
inactive: [5] 0.123

RNASE7 (UniProt Q9H1E1)
inactive: [6] 0.639

RCL1 (UniProt Q5VZU2)
inactive: [6] -0.225 | [5] 0.257

RNF111 isoform 3 (UniProt Q6ZNA4)
inactive: vorinostat 0.051

RFX3 (UniProt P48380)
inactive: [3] -0.023 | entinostat 0.023 | citarinostat 0.04 | [2] 0.003

RERE (UniProt Q9P2R6)
inactive: [3] 0.001 | [1] -0.161 | entinostat 0.107 | silmitasertib 0.089 | [5] -0.018

RBM7 (UniProt Q9Y580)
inactive: [3] -0.208 | [1] 0.043 | [4] -0.144 | entinostat 0.066 | vorinostat 0.193 | citarinostat -0.077 | silmitasertib -0.03 | [5] 0.164 | [2] -0.156

RILPL1 (UniProt Q5EBL4)
inactive: [3] 0.013 | [1] 0.056 | [4] 0.026 | entinostat 0.035 | citarinostat 0.131 | silmitasertib 0.212 | [5] 0.06 | [2] -0.009

RHBDD1 (UniProt Q8TEB9)
inactive: [3] -0.06 | [1] 0.115 | [4] 0.078 | entinostat -0.04 | vorinostat -0.153 | citarinostat 0.118 | silmitasertib 0.036 | [5] 0.016 | [2] 0.102

RCBTB1 (UniProt Q8NDN9)
inactive: [3] -0.266 | entinostat -0.035 | [5] 0.273

RIPOR1 isoform 4 (UniProt Q6ZS17)
inactive: [5] 0.302

RMDN2 isoform 2 (UniProt Q96LZ7)
inactive: [1] -0.018 | [4] 0.116 | silmitasertib -0.275

Random excerpt: 2 records from the list.
RGCC (UniProt Q9H4X1)
inactive: [6] 0.045 | vorinostat -0.146

RINT1 (UniProt Q6NUQ1)
inactive: [6] -0.074 | [1] -0.482 | [4] -0.038 | vorinostat -0.076 | citarinostat -0.095 | silmitasertib 0.293 | [5] 0.203 | [2] -0.148

The listing continues.

RC3H2 (UniProt Q9HBD1)
inactive: vorinostat -0.017 | [5] 0.031

RBP4 (UniProt P02753)
inactive: [6] 0.014 | [1] 0.267 | [4] 0.256 | vorinostat 0.358 | citarinostat -0.15 | silmitasertib -0.224 | [2] 0.265

RILPL2 (UniProt Q969X0)
inactive: [5] 0.067
